Data reported in the supplement of paper PMC12823440, “Inhibitors supercharge kinase turnover through native proteolytic circuits” (Nature, 2025).
Some of the results follow. The calls rarely recur for the same compound in another form.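 In K562 cells expressing nanoluciferase-fused kinases, luminescence was recorded at 4 h intervals between 2 and 18 h, normalized as percent of control with DMSO at 100% and a positive control at 0%. A significant (2 sigma) signal drop marks a time point as decreased. The authors' rule for a hit is not shown and takes in more than the number of time points.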

By UniProt entry, the sequences of proteins in these tests, tags left out. Where a name states a change or a piece, a line headed by the entry shows the natural chain unless it says otherwise.
UniProt Q96KB5: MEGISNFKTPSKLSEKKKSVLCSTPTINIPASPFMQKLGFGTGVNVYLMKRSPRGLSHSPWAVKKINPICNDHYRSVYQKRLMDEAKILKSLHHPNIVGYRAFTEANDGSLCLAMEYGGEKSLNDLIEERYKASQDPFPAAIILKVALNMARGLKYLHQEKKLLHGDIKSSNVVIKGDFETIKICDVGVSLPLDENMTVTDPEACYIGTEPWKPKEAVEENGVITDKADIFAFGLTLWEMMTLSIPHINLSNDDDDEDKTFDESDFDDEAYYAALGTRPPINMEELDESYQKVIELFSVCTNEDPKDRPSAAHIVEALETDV
UniProt P41240: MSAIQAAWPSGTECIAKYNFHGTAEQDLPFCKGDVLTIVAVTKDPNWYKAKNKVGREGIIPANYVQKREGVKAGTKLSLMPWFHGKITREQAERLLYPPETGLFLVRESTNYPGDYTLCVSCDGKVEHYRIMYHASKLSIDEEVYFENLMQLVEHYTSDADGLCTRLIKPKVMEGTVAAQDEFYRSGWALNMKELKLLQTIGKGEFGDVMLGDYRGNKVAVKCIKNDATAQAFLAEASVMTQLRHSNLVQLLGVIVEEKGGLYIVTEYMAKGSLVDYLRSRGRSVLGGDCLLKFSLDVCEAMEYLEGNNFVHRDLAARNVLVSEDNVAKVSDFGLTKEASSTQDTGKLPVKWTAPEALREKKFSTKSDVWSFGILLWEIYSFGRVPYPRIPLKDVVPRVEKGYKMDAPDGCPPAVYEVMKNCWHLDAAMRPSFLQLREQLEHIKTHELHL
UniProt P07949, whole entry M918T, looked up: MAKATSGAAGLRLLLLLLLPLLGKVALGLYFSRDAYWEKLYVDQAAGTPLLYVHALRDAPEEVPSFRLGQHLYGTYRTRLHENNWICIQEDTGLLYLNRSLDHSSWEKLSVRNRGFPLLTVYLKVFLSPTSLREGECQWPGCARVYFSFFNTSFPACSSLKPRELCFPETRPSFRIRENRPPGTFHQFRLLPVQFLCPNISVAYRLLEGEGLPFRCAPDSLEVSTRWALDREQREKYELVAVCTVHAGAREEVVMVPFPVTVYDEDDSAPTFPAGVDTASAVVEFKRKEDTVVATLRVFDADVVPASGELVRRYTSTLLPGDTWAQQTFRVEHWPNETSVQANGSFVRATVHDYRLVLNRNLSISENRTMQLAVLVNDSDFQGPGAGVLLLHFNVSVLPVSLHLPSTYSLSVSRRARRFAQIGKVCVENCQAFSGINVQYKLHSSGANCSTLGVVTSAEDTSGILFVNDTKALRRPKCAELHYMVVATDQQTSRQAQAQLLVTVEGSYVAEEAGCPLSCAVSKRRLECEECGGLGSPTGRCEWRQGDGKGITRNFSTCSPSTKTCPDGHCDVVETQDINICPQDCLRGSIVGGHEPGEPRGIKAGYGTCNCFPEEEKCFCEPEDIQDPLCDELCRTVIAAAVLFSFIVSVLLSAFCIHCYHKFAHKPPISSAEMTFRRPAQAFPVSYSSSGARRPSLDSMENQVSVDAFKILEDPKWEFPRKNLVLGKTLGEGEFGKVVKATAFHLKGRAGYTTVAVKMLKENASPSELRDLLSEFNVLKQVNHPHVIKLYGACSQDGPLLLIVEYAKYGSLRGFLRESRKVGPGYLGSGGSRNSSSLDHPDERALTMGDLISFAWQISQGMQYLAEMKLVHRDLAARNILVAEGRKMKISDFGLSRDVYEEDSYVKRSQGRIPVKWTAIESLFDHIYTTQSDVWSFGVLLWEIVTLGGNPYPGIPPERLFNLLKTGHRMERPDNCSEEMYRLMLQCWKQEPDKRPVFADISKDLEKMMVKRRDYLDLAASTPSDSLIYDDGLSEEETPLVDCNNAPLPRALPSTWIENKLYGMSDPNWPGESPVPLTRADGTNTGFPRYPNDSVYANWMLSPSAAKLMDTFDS
UniProt P07947, whole entry, looked up: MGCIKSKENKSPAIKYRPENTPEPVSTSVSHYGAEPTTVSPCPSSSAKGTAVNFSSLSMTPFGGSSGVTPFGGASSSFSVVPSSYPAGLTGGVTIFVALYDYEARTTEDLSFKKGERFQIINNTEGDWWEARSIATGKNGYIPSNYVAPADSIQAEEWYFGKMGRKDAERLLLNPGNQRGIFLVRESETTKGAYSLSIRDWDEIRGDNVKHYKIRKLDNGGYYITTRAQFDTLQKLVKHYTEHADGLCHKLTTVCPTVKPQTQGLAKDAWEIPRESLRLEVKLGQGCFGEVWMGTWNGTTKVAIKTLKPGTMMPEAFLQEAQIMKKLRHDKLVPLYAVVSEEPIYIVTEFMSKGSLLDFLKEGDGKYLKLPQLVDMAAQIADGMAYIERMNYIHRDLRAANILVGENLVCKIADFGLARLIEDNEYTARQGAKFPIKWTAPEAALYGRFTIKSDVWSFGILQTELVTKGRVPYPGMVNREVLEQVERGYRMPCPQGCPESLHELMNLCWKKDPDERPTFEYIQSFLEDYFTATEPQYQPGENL
UniProt P22607, whole entry, looked up: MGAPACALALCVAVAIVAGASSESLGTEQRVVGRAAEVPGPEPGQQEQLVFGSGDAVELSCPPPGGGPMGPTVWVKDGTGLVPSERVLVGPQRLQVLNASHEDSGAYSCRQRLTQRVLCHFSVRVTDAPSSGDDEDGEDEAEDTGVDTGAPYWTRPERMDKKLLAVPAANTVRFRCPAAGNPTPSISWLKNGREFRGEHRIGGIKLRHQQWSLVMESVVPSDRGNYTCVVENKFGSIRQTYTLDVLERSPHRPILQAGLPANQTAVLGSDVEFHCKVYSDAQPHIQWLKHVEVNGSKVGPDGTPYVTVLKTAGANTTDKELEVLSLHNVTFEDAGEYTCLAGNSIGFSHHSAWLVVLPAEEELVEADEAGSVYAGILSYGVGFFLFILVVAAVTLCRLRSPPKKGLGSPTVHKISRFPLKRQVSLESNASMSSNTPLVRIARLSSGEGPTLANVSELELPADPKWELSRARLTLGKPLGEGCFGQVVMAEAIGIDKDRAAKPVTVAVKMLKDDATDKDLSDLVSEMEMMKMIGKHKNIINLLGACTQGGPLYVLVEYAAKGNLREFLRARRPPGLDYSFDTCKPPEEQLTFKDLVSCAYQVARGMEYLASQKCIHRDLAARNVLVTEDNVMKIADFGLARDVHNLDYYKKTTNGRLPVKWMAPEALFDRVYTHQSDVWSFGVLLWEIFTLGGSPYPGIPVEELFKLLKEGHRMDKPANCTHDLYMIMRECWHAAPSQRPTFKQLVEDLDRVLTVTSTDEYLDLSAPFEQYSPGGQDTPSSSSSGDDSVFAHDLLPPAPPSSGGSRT
UniProt P06239: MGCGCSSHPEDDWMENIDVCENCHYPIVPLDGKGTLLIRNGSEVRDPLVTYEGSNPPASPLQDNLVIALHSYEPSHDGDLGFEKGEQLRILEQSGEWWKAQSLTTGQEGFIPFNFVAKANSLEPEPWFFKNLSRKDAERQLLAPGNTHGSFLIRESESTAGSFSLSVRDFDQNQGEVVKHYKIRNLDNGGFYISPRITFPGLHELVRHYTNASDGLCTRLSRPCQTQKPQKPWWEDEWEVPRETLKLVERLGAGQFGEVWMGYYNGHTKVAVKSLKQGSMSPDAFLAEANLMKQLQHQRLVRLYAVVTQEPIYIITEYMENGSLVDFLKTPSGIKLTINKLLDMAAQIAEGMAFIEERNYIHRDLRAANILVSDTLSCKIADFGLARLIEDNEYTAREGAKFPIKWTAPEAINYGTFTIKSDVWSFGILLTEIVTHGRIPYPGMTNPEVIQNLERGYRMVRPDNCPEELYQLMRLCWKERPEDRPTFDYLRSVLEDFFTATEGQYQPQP
UniProt P00519, whole entry: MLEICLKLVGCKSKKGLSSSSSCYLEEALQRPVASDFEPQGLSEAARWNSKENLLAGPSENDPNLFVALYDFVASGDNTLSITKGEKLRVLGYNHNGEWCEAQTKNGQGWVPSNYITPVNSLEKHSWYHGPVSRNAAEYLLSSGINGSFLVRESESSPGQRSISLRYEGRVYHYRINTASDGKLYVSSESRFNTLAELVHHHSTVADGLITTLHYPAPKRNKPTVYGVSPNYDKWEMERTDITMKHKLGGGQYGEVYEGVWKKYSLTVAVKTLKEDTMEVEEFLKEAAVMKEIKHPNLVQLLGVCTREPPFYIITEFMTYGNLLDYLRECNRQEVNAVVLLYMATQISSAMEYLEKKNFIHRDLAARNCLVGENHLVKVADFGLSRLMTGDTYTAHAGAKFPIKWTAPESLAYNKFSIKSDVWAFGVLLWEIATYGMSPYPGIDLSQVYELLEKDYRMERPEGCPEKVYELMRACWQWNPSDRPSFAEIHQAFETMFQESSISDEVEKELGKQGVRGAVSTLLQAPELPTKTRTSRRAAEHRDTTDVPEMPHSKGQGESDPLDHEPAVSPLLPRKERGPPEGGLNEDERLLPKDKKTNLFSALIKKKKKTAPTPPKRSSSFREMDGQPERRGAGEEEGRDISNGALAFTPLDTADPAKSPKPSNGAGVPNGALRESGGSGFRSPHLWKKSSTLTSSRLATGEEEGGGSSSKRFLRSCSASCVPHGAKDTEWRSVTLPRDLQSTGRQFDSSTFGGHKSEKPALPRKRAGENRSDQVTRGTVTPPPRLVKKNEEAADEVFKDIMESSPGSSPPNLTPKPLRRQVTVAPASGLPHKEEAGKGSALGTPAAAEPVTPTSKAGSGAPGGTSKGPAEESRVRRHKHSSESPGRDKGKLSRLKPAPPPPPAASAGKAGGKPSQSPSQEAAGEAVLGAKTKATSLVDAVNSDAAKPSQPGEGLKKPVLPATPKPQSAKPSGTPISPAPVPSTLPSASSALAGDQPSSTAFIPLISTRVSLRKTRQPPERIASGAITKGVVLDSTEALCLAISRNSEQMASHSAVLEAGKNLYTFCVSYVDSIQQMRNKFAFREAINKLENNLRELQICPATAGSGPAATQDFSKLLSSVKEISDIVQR
UniProt O96017, whole entry: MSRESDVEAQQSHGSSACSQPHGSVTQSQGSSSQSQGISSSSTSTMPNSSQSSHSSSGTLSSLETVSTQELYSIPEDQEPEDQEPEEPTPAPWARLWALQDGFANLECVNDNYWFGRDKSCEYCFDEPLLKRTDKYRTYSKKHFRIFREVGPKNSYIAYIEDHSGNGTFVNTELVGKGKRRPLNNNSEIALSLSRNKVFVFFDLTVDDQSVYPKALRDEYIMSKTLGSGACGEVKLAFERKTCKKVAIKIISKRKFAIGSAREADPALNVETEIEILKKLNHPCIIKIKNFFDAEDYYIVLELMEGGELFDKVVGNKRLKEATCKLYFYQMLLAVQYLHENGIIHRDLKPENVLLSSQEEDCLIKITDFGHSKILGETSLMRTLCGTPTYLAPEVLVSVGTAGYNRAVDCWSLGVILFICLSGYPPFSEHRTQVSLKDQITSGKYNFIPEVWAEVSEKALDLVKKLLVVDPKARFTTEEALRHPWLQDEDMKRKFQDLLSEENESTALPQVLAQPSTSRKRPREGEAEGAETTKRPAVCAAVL

What was measured:
Test in all cases: number of time points (of 5) at which kinase-Nluc abundance scored as decreased, DMSO-normalised (count); higher = more persistent destabilization
Umbralisib = compound: CC(C)Oc1ccc(-c2nn([C@@H](C)c3oc4ccc(F)cc4c(=O)c3-c3cccc(F)c3)c3ncnc(N)c23)cc1F [Umbralisib]; settings: 2.5 µM; K562; 2-18 h
Bucladesine (calcium) = compound: CCCC(=O)Nc1ncnc2c1ncn2[C@@H]1O[C@@H]2COP(=O)(O)O[C@H]2[C@H]1OC(=O)CCC [Bucladesine (calcium)]; settings: 10 µM; K562; 2-18 h
Bucladesine (sodium) = compound: CCCC(=O)Nc1ncnc2c1ncn2[C@@H]1O[C@@H]2COP(=O)(O)O[C@H]2[C@H]1OC(=O)CCC [Bucladesine (sodium)]; settings: 10 µM; K562; 2-18 h
[1] = compound: CCCCCCCCc1ccc(CCC(N)(CO)CO)cc1 [Fingolimod (hydrochloride)]; settings: 2.5 µM; K562; 2-18 h
Fingolimod = compound: CCCCCCCCc1ccc(CCC(N)(CO)CO)cc1 [Fingolimod]; settings: 2.5 µM; K562; 2-18 h
[2] = compound: CCN(CC)CC(=O)Nc1c(C)cccc1C [Lidocaine (hydrochloride)]; settings: 10 µM; K562; 2-18 h
Lidocaine = compound: CCN(CC)CC(=O)Nc1c(C)cccc1C [Lidocaine]; settings: 10 µM; K562; 2-18 h
[3] = compound: CCN(CC)Cc1ccc(OC)c(-c2cc3c(-c4ccc(C(=O)O)c(C(C)C)c4)ccnc3[nH]2)c1; settings: K562, 2-18 h
Baricitinib (phosphate) = compound: CCS(=O)(=O)N1CC(CC#N)(n2cc(-c3ncnc4[nH]ccc34)cn2)C1 [Baricitinib (phosphate)]; settings: 10 µM; K562; 2-18 h
Baricitinib = compound: CCS(=O)(=O)N1CC(CC#N)(n2cc(-c3ncnc4[nH]ccc34)cn2)C1 [Baricitinib]; settings: 10 µM; K562; 2-18 h
[4] = compound: CCS(=O)(=O)N1CCN(c2ccc(Nc3ncc(C(N)=O)c(NC4CC4)n3)cc2)CC1 [Cerdulatinib (hydrochloride)]; settings: 10 µM; K562; 2-18 h
Cerdulatinib = compound: CCS(=O)(=O)N1CCN(c2ccc(Nc3ncc(C(N)=O)c(NC4CC4)n3)cc2)CC1 [Cerdulatinib]; settings: 10 µM; K562; 2-18 h
[5] = compound: CCc1nc(C(N)=O)c(Nc2ccc(N3CCC(N4CCN(C)CC4)CC3)c(OC)c2)nc1NC1CCOCC1 [Gilteritinib hemifumarate]; settings: 2 µM; K562; 2-18 h
Gilteritinib = compound: CCc1nc(C(N)=O)c(Nc2ccc(N3CCC(N4CCN(C)CC4)CC3)c(OC)c2)nc1NC1CCOCC1 [Gilteritinib]; settings: 2 µM; K562; 2-18 h
[6] = compound: CN(C)C(=N)NC(=N)N [Metformin (hydrochloride)]; settings: 10 µM; K562; 2-18 h
Metformin = compound: CN(C)C(=N)NC(=N)N [Metformin]; settings: 10 µM; K562; 2-18 h
Ribociclib hydrochloride = compound: CN(C)C(=O)c1cc2cnc(Nc3ccc(N4CCNCC4)cn3)nc2n1C1CCCC1 [Ribociclib hydrochloride]; settings: 2.5 µM; K562; 2-18 h
[7] = compound: CN(C)C(=O)c1cc2cnc(Nc3ccc(N4CCNCC4)cn3)nc2n1C1CCCC1 [Ribociclib succinate hydrate]; settings: 2.5 µM; K562; 2-18 h
Ribociclib succinate = compound: CN(C)C(=O)c1cc2cnc(Nc3ccc(N4CCNCC4)cn3)nc2n1C1CCCC1 [Ribociclib succinate]; settings: 10 µM; K562; 2-18 h
Ribociclib = compound: CN(C)C(=O)c1cc2cnc(Nc3ccc(N4CCNCC4)cn3)nc2n1C1CCCC1 [Ribociclib]; settings: 10 µM; K562; 2-18 h

Measured: number of time points

PBK (UniProt Q96KB5)
0: Umbralisib | Bucladesine (calcium) | Bucladesine (sodium) | [1] | Fingolimod | [2] | Lidocaine | [3]; 2.5 µM | [3]; 10 µM | Baricitinib (phosphate) | Baricitinib | [4] | Cerdulatinib | [5] | Gilteritinib | [6] | Metformin | Ribociclib hydrochloride | [7] | Ribociclib succinate | Ribociclib

CSK (UniProt P41240)
0: Umbralisib | Bucladesine (calcium) | Bucladesine (sodium) | [1] | Fingolimod | [2] | Lidocaine | [3]; 2.5 µM | [3]; 10 µM | Baricitinib (phosphate) | Baricitinib | [4] | Cerdulatinib | [5] | Gilteritinib | [6] | Metformin | Ribociclib hydrochloride | [7] | Ribociclib succinate | Ribociclib

RET_M918T (clone: RET_mut) (UniProt P07949)
0: Umbralisib | Bucladesine (calcium) | Bucladesine (sodium) | [1] | Fingolimod | [2] | Lidocaine | [3]; 2.5 µM | [3]; 10 µM | Baricitinib (phosphate) | Baricitinib | [4] | Cerdulatinib | [5] | Gilteritinib | [6] | Metformin | Ribociclib hydrochloride | [7] | Ribociclib succinate | Ribociclib

YES1 (UniProt P07947)
0: Umbralisib | Bucladesine (calcium) | Bucladesine (sodium) | [1] | Fingolimod | [2] | Lidocaine | [3]; 2.5 µM | [3]; 10 µM | Baricitinib (phosphate) | Baricitinib | Cerdulatinib | [5] | Gilteritinib | [6] | Metformin | Ribociclib hydrochloride | [7] | Ribociclib succinate | Ribociclib
2: [4]

FGFR3 (UniProt P22607)
0: Umbralisib | Bucladesine (calcium) | Bucladesine (sodium) | [1] | Fingolimod | [2] | Lidocaine | [3]; 2.5 µM | [3]; 10 µM | Baricitinib (phosphate) | Baricitinib | Cerdulatinib | [5] | Gilteritinib | [6] | Metformin | Ribociclib hydrochloride | [7] | Ribociclib succinate | Ribociclib
4: [4]

Copied from the listing (two entries):
PBK (UniProt Q96KB5)
0: Umbralisib | Bucladesine (calcium) | Bucladesine (sodium) | [1] | Fingolimod | [2] | Lidocaine | [3]; 2.5 µM | [3]; 10 µM | Baricitinib (phosphate) | Baricitinib | [4] | Cerdulatinib | [5] | Gilteritinib | [6] | Metformin | Ribociclib hydrochloride | [7] | Ribociclib succinate | Ribociclib

CSK (UniProt P41240)
0: Umbralisib | Bucladesine (calcium) | Bucladesine (sodium) | [1] | Fingolimod | [2] | Lidocaine | [3]; 2.5 µM | [3]; 10 µM | Baricitinib (phosphate) | Baricitinib | [4] | Cerdulatinib | [5] | Gilteritinib | [6] | Metformin | Ribociclib hydrochloride | [7] | Ribociclib succinate | Ribociclib

(further entries)

LCK (UniProt P06239)
0: Umbralisib | Bucladesine (calcium) | Bucladesine (sodium) | [1] | Fingolimod | [2] | Lidocaine | [3]; 2.5 µM | [3]; 10 µM | Baricitinib (phosphate) | Baricitinib | [4] | Cerdulatinib | [5] | Gilteritinib | [6] | Metformin | Ribociclib hydrochloride | [7] | Ribociclib succinate | Ribociclib

ABL1 (UniProt P00519)
0: Umbralisib | Bucladesine (calcium) | Bucladesine (sodium) | [1] | [2] | Lidocaine | [3]; 2.5 µM | [3]; 10 µM | Baricitinib (phosphate) | Baricitinib | Cerdulatinib | [5] | Gilteritinib | [6] | Metformin | Ribociclib hydrochloride | [7] | Ribociclib succinate | Ribociclib
4: Fingolimod | [4]

CHEK2 (UniProt O96017)
0: Umbralisib | Bucladesine (calcium) | Bucladesine (sodium) | [1] | Fingolimod | [2] | Lidocaine | [3]; 2.5 µM | [3]; 10 µM | Baricitinib (phosphate) | Baricitinib | Cerdulatinib | [5] | Gilteritinib | [6] | Metformin | Ribociclib hydrochloride | [7] | Ribociclib succinate | Ribociclib
3: [4]
